The target of assay [1] is KorB∆N30∆CTD, His-tagged (plasmid RK2 (Escherichia coli)) (UniProt P07674). Briefly: crystal structure; KorBΔN30ΔCTD with 1 mM MgCl2 and 1 mM CTPγS; 2.3 Å; six protomers (three dimers) in the asymmetric unit, domain-swapped; both purified.
Assay [2] has the same target. Briefly: crystal structure; KorBΔN30ΔCTD–KorA complex with 14 bp OA DNA duplex, no CTPγS added; 2.7 Å; two KorA, two KorB subunits and one DNA duplex in the asymmetric unit; both purified.
The target in assay [3] is T1, E. coli RNA polymerase σ^70 holoenzyme (Eσ^70) (E. coli) (UniProt P0A7Z4+P0A8V2+P0A8T7+P0A800+P00579). The assay is described as follows: condition: 2.5-fold molar excess (12.5 μM) of KorB over 5 μM Eσ^70; native MS; 5 μM Eσ^70 on 5.5 μM 100 bp PkorA DNA with 2.5-fold excess (12.5 μM) KorB dimer; 500 mM ammonium acetate pH 7.5, 0.01% Tween-20; both purified.
The target of assay [4] is KorB (wild type), C-terminally His-tagged (plasmid RK2 (Escherichia coli)) (UniProt P07674). The assay is described as follows: condition: 200 μM protein partner injected into 20 μM KorB dimer; ITC; 20 μM KorB dimer (WT or mutant) in the cell, 200 μM protein partner injected; 25 °C; 10 mM Tris–HCl, 150 mM NaCl, pH 8.0; one-site binding model; duplicate; both purified.
The target in assay [5] is T1, E. coli RNA polymerase σ^70 holoenzyme (Eσ^70) (E. coli). The assay is described as follows: condition: 2.5-fold molar excess (12.5 μM) of KorA over 5 μM Eσ^70; native MS; 5 μM Eσ^70 on 5.5 μM 100 bp PkorA DNA with 2.5-fold excess (12.5 μM) KorA dimer; 150 mM ammonium acetate pH 7.5, 0.01% Tween-20; both purified.
In assay [6] the target is KorB (F249A), C-terminally His-tagged (plasmid RK2 (Escherichia coli)) (UniProt P07674). The assay is described as follows: condition: 200 μM protein partner injected into 20 μM KorB dimer; ITC; 20 μM KorB dimer (WT or mutant) in the cell, 200 μM protein partner injected; 25 °C; 10 mM Tris–HCl, 150 mM NaCl, pH 8.0; one-site binding model; duplicate; both purified.
Assay [7] concerns the target T1, E. coli RNA polymerase σ^70 holoenzyme (Eσ^70) (E. coli). The assay is described as follows: condition: 2.5-fold excess KorA dimer over 5 μM Eσ^70; native MS; 5 μM Eσ^70 without promoter DNA with 2.5-fold excess KorA dimer; 300 mM or 150 mM ammonium acetate pH 8.0, 0.01% Tween-20; both purified.

These are yes or no findings as the source states them, for the method shown. Some results given as binding are weak or reduced against the parent protein; the word gives no strength.

With “KorB∆N30∆CTD, His-tagged (from UniProt P07674 31-253) (domain or fragment)”, the binding entry in assay [1] and in assay [2] was “binds” each time.
As for “KorB (wild type), C-terminally His-tagged (from UniProt P07674 1-358)”, the binding result in assay [3] is given as “no binding”.
Consider “KorA (Y84A), C-terminally His-tagged (from UniProt P03052)”, for which the binding result in assay [4] is “no binding”.
Regarding “KorA (wild type), C-terminally His-tagged (from UniProt P03052 1-101)”, the binding result in assay [5] is “no binding”; in assay [6] it was “no binding”; in assay [7], “no binding”; in assay [2] it was “binds”.

(Values after PMC11790492.)
